Results taken from article PMC5519978.

Chains of the proteins cited; added tags and fusions are not shown. Chains listed by the source or under a name are the forms on record and can include a tag or linker.
hBRM-B AT-BRD basic patch mutant K1432D,K1433N,K1442A,del1382-1399 (human), one chain, as listed by the source K1432D K1433N K1442A: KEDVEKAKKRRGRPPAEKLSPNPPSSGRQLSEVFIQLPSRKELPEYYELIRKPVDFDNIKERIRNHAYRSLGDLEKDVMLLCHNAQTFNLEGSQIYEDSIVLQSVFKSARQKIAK

Tested on: hBRM-B AT-BRD basic patch mutant K1432D,K1433N,K1442A,del1382-1399 (human)
Assay: NMR titration
Settings: column assigned from text; FA and NMR: 50 mM K phosphate pH 7.0, 50 mM KCl, 0.5 mM EDTA, 1 mM DTT (NMR +10% D2O), 20 C (BRG1 NMR 25 C); recombinant protein; residues 1358-1490

Row | Sequence | Kd [µM]
1 | CGTAGACAGCT (double strand) [DNAII] | 100
2 | CTCAATTGGT (double strand) [DNAI] | 100

For at least one entry, the source does not settle the construct or the ends of the probe.
